In PMC4222822, “Discovery and Characterization of a Potent and Selective Inhibitor of Aedes aegypti Inward Rectifier Potassium Channels” (PLoS ONE, 2014) one finds IC50 data, which are given here for one molecule.

Chains of the proteins cited; added tags and fusions are not shown. Residues count along the entry.
UniProt L0EQS9, 1-486: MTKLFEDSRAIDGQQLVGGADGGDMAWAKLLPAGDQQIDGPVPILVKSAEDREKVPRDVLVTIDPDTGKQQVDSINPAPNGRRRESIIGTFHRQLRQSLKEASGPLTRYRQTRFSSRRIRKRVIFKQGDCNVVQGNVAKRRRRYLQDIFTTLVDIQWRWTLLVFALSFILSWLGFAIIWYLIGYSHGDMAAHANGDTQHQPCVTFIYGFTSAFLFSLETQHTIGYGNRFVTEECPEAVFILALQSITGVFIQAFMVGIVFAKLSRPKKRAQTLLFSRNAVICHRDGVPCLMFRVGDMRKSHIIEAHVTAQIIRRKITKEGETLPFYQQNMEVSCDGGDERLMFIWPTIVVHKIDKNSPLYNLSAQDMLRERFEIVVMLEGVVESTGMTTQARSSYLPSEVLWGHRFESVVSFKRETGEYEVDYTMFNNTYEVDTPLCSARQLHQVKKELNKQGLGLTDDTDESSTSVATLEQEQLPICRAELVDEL

As a reminder, the IC50 is the concentration needed to halve the response being measured.

Each structure is given as a SMILES string. Structures were worked out from names or drawings and are uncertain.

This assay concerns the target AeKir1 (Aedes aegypti, UniProt L0EQS9). Nature of the assay: Tl+ flux assay in T-REx-HEK293-AeKir1 cells. Type of assay: cell-based. The conditions noted are these: Table S3, left-hand sulfonamide SAR; 11-point CRCs on AeKir1 in Tl+ flux, triplicate on two separate days. How it is done:
Tl^+ flux assays were performed essentially as described previously, [18], [19]. Briefly, stably transfected T-Rex-HEK-293 cells expressing AeKir1 channels were cultured overnight in 384-well plates (20,000 cells/20 µL/well black-walled, clear-bottomed BD PureCoat amine-coated plates (BD, Bedford, MA) with a plating media containing DMEM, 10% dialyzed FBS and 1 µg/mL tetracycline. The next day, the cell culture medium was replaced with a dye-loading solution containing assay buffer (Hanks Balanced Salt Solution with 20 mM HEPES, pH 7.3), 0.01% (w/v) Pluronic F-127 (Life Technologies, Carlsbad, CA), and 1.2 µM of the thallium-sensitive dye Thallos-AM (TEFlabs, Austin, TX). Following 1 hr incubation at room temperature, the dye-loading solution was washed from the plates and replaced with 20 µL/well of assay buffer. […] Tl^+ flux data were analyzed as previously described, [21], [22] using a combination of Excel (Microsoft Corp, Redmond, WA) with XLfit add-in (IDBS, Guildford, Surrey, UK) and OriginPro (OriginLab, Northampton, MA) software. […] The slope of the fluorescence increase beginning 5 s after Tl^+ addition and ending 15 s after Tl^+ addition was calculated. […] Half-inhibition concentration (IC50) values were calculated from fits using a four parameter logistic equation.

Turning to `CCC(=O)N1c2ccc(S(=O)(=O)Nc3cccc(OC)c3)cc2CC1C` (stereo not shown) [VU625, N-(3-methoxyphenyl)-2-methyl-1-propionylindoline-5-sulfonamide], the IC50 is 338 nM.
